According to PMC5484351:
These are yes or no findings as the source states them, for the method shown. Tags and fused reporters may be left off the sequences shown.

Assays:
[1] = biological target: Saccharomyces cerevisiae Atf1p (recombinant Atf1p-V5-His10) (S. cerevisiae) (UniProt P40353); assay: SEC; Superdex 200 10/300 GL, without detergent or with DDM in the buffer; both purified
[2] = biological target: Saccharomyces cerevisiae Atf1p (recombinant Atf1p-V5-His10) (S. cerevisiae) (UniProt P40353); assay: SEC; Superdex 200 10/300 GL, Thesit kept in the SEC buffer (detergents at 2–4 x CMC), column calibrated with protein standards; both purified

binding [1]: no binding | binding [2]: no binding
B1: Saccharomyces cerevisiae Atf1p (recombinant Atf1p-V5-His10) (enzyme, UniProt P40353 1-525)
chain: MNEIDEKNQAPVQQECLKEMIQNGHARRMGSVEDLYVALNRQNLYRNFCTYGELSDYCTRDQLTLALREICLKNPTLLHIVLPTRWPNHENYYRSSEYYSRPHPVHDYISVLQELKLSGVVLNEQPEYSAVMKQILEEFKNSKGSYTAKIFKLTTTLTIPYFGPTGPSWRLICLPEEHTEKWKKFIFVSNHCMSDGRSSIHFFHDLRDELNNIKTPPKKLDYIFKYEEDYQLLRKLPEPIEKVIDFRPPYLFIPKSLLSGFIYNHLRFSSKGVCMRMDDVEKTDDVVTEIINISPTEFQAIKANIKSNIQGKCTITPFLHVCWFVSLHKWGKFFKPLNFEWLTDIFIPADCRSQLPDDDEMRQMYRYGANVGFIDFTPWISEFDMNDNKENFWPLIEHYHEVISEALRNKKHLHGLGFNIQGFVQKYVNIDKVMCDRAIGKRRGGTLLSNVGLFNQLEEPDAKYSICDLAFGQFQGSWHQAFSLGVCSTNVKGMNIVVASTKNVVGSQESLEELCSIYKALLLGP
